Data on 5 molecules can be found in paper PMC11852926.

The target in experiment [1] is GST-CT (GST fused to the 38 aa cytoplasmic tail of the IBV S protein) (infectious bronchitis virus (IBV), strain YN). Description: pull-down; GST or GST-CT immobilised on glutathione Sepharose 4B, washed with PBS, incubated overnight at 4°C with bacterial lysates containing His-COPA constructs; eluted with 20 mM reduced glutathione; Western blot; only the target purified.

Experiment [2] addresses Flag-tagged IBV spike protein, wild type (S-WT) (infectious bronchitis virus (IBV), strain YN). Description: co-IP; HEK 293T co-transfected with Flag-tagged S and one HA-tagged COPI subunit; 48 h; lysates precipitated with anti-Flag M2 affinity gel; Western blot.

No constants are given. Whether binding was seen depends on the method and setting. In cells and extracts the contact can be indirect. A result given as binding can be weak or reduced; the word gives no strength. Where a sequence is shown, tags or fusion partners need not be part of it.

B1: His-COPA-Δ324–774 (protein, UniProt P53621)
chain: MLTKFETKSARVKGLSFHPKRPWILTSLHNGVIQLWDYRMCTLIDKFDEHDGPVRGIDFHKQQPLFVSGGDDYKIKVWNYKLRRCLFTLLGHLDYIRTTFFHHEYPWILSASDDQTIRVWNWQSRTCVCVLTGHNHYVMCAQFHPTEDLVVSASLDQTVRVWDISGLRKKNLSPGAVESDVRGITGVDLFGTTDAVVKHVLEGHDRGVNWAAFHPTMPLIVSGADDRQVKIWRMNESKAWEVDTCRGHYNNVSCAVFHPRQELILSNSEDKSIRVWDMSKRTGVQTFRRDHDRFWVLAAHPNLNLFAAGHDGGMIVFKLERERKETFDPEKETIPDIDPNAKLLQPPAPIMPLDTNWPLLTVSKGFFEGTIASKGKGGALAADIDIDTVGTEGWGEDAELQLDEDGFVEATEGLGDDALGKGQEEGGGWDVEEDLELPPELDISPGAAGGAEDGFFVPPTKGTSPTQIWCNNSQLPVDHILAGSFETAMRLLHDQVGVIQFGPYKQLFLQTYARGRTTYQALPCLPSMYGYPNRNWKDAGLKNGVPAVGLKLNDLIQRLQLCYQLTTVGKFEEAVEKFRSILLSVPLLVVDNKQEIAEAQQLITICREYIVGLSVETERKKLPKETLEQQKRICEMAAYFTHSNLQPVHMILVLRTALNLFFKLKNFKTAATFARRLLELGPKPEVAQQTRKILSACEKNPTDAYQLNYDMHNPFDICAASYRPIYRGKPVEKCPLSGACYSPEFKGQICRVTTVTEIGKDVIGLRISPLQFR
As to B1, the binding result in experiment [1] was “no binding”.

B2: His-COPA-Δ1–318 (domain or fragment, UniProt P53621 319-1224)
chain: LERERPAYAVHGNMLHYVKDRFLRQLDFNSSKDVAVMQLRSGSKFPVFNMSYNPAENAVLLCTRASNLENSTYDLYTIPKDADSQNPDAPEGKRSSGLTAVWVARNRFAVLDRMHSLLIKNLKNEITKKVQVPNCDEIFYAGTGNLLLRDADSITLFDVQQKRTLASVKISKVKYVIWSADMSHVALLAKHAIVICNRKLDALCNIHENIRVKSGAWDESGVFIYTTSNHIKYAVTTGDHGIIRTLDLPIYVTRVKGNNVYCLDRECRPRVLTIDPTEFKFKLALINRKYDEVLHMVRNAKLVGQSIIAYLQKKGYPEVALHFVKDEKTRFSLALECGNIEIALEAAKALDDKNCWEKLGEVALLQGNHQIVEMCYQRTKNFDKLSFLYLITGNLEKLRKMMKIAEIRKDMSGHYQNALYLGDVSERVRILKNCGQKSLAYLTAATHGLDEEAESLKETFDPEKETIPDIDPNAKLLQPPAPIMPLDTNWPLLTVSKGFFEGTIASKGKGGALAADIDIDTVGTEGWGEDAELQLDEDGFVEATEGLGDDALGKGQEEGGGWDVEEDLELPPELDISPGAAGGAEDGFFVPPTKGTSPTQIWCNNSQLPVDHILAGSFETAMRLLHDQVGVIQFGPYKQLFLQTYARGRTTYQALPCLPSMYGYPNRNWKDAGLKNGVPAVGLKLNDLIQRLQLCYQLTTVGKFEEAVEKFRSILLSVPLLVVDNKQEIAEAQQLITICREYIVGLSVETERKKLPKETLEQQKRICEMAAYFTHSNLQPVHMILVLRTALNLFFKLKNFKTAATFARRLLELGPKPEVAQQTRKILSACEKNPTDAYQLNYDMHNPFDICAASYRPIYRGKPVEKCPLSGACYSPEFKGQICRVTTVTEIGKDVIGLRISPLQFR
In the case of B2, in experiment [1], the binding entry is given as “no binding”.

B3: His-COPA-Δ816–1224 (domain or fragment, UniProt P53621 1-815)
chain: MLTKFETKSARVKGLSFHPKRPWILTSLHNGVIQLWDYRMCTLIDKFDEHDGPVRGIDFHKQQPLFVSGGDDYKIKVWNYKLRRCLFTLLGHLDYIRTTFFHHEYPWILSASDDQTIRVWNWQSRTCVCVLTGHNHYVMCAQFHPTEDLVVSASLDQTVRVWDISGLRKKNLSPGAVESDVRGITGVDLFGTTDAVVKHVLEGHDRGVNWAAFHPTMPLIVSGADDRQVKIWRMNESKAWEVDTCRGHYNNVSCAVFHPRQELILSNSEDKSIRVWDMSKRTGVQTFRRDHDRFWVLAAHPNLNLFAAGHDGGMIVFKLERERPAYAVHGNMLHYVKDRFLRQLDFNSSKDVAVMQLRSGSKFPVFNMSYNPAENAVLLCTRASNLENSTYDLYTIPKDADSQNPDAPEGKRSSGLTAVWVARNRFAVLDRMHSLLIKNLKNEITKKVQVPNCDEIFYAGTGNLLLRDADSITLFDVQQKRTLASVKISKVKYVIWSADMSHVALLAKHAIVICNRKLDALCNIHENIRVKSGAWDESGVFIYTTSNHIKYAVTTGDHGIIRTLDLPIYVTRVKGNNVYCLDRECRPRVLTIDPTEFKFKLALINRKYDEVLHMVRNAKLVGQSIIAYLQKKGYPEVALHFVKDEKTRFSLALECGNIEIALEAAKALDDKNCWEKLGEVALLQGNHQIVEMCYQRTKNFDKLSFLYLITGNLEKLRKMMKIAEIRKDMSGHYQNALYLGDVSERVRILKNCGQKSLAYLTAATHGLDEEAESLKETFDPEKETIPDIDPNAKLLQPPAPIMPLDTNWPLLTVSK
As to B3, the binding result in experiment [1] is “binds”.

B4: HA-tagged β′ subunit of COPI (protein, UniProt P35606 1-906)
chain: MPLRLDIKRKLTARSDRVKSVDLHPTEPWMLASLYNGSVCVWNHETQTLVKTFEVCDLPVRAAKFVARKNWVVTGADDMQIRVFNYNTLERVHMFEAHSDYIRCIAVHPTQPFILTSSDDMLIKLWDWDKKWSCSQVFEGHTHYVMQIVINPKDNNQFASASLDRTIKVWQLGSSSPNFTLEGHEKGVNCIDYYSGGDKPYLISGADDRLVKIWDYQNKTCVQTLEGHAQNVSCASFHPELPIIITGSEDGTVRIWHSSTYRLESTLNYGMERVWCVASLRGSNNVALGYDEGSIIVKLGREEPAMSMDANGKIIWAKHSEVQQANLKAMGDAEIKDGERLPLAVKDMGSCEIYPQTIQHNPNGRFVVVCGDGEYIIYTAMALRNKSFGSAQEFAWAHDSSEYAIRESNSIVKIFKNFKEKKSFKPDFGAESIYGGFLLGVRSVNGLAFYDWDNTELIRRIEIQPKHIFWSDSGELVCIATEESFFILKYLSEKVLAAQETHEGVTEDGIEDAFEVLGEIQEIVKTGLWVGDCFIYTSSVNRLNYYVGGEIVTIAHLDRTMYLLGYIPKDNRLYLGDKELNIISYSLLVSVLEYQTAVMRRDFSMADKVLPTIPKEQRTRVAHFLEKQGFKQQALTVSTDPEHRFELALQLGELKIAYQLAVEAESEQKWKQLAELAISKCQFGLAQECLHHAQDYGGLLLLATASGNANMVNKLAEGAERDGKNNVAFMSYFLQGKVDACLELLIRTGRLPEAAFLARTYLPSQVSRVVKLWRENLSKVNQKAAESLADPTEYENLFPGLKEAFVVEEWVKETHADLWPAKQYPLVTPNEERNVMEEGKDFQPSRSTAQQELDGKPASPTPVIVASHTANKEEKSLLELEVDLDNLELEDIDTTDINLDEDILDD
For B4, the binding result in experiment [2] is “binds”.

B5: HA-tagged δ subunit of COPI (protein, UniProt P48444 1-511)
chain: MVLLAAAVCTKAGKAIVSRQFVEMTRTRIEGLLAAFPKLMNTGKQHTFVETESVRYVYQPMEKLYMVLITTKNSNILEDLETLRLFSRVIPEYCRALEENEISEHCFDLIFAFDEIVALGYRENVNLAQIRTFTEMDSHEEKVFRAVRETQEREAKAEMRRKAKELQQARRDAERQGKKAPGFGGFGSSAVSGGSTAAMITETIIETDKPKVAPAPARPSGPSKALKLGAKGKEVDNFVDKLKSEGETIMSSSMGKRTSEATKMHAPPINMESVHMKIEEKITLTCGRDGGLQNMELHGMIMLRISDDKYGRIRLHVENEDKKGVQLQTHPNVDKKLFTAESLIGLKNPEKSFPVNSDVGVLKWRLQTTEESFIPLTINCWPSESGNGCDVNIEYELQEDNLELNDVVITIPLPSGVGAPVIGEIDGEYRHDSRRNTLEWCLPVIDAKNKSGSLEFSIAGQPNDFFPVQVSFVSKKNYCNIQVTKVTQVDGNSPVRFSTETTFLVDKYEIL
B5: the binding result in experiment [2] was “binds”.
